Measurements from article PMC4784730.
No constants are given. Whether binding was seen depends on the method and setting. In cells and extracts the contact can be indirect. Some binding calls cover weakened binding; strength is not graded here.

Sequences of proteins named here, by UniProt entry; tags and fusion partners are left off.
UniProt Q0VGT2: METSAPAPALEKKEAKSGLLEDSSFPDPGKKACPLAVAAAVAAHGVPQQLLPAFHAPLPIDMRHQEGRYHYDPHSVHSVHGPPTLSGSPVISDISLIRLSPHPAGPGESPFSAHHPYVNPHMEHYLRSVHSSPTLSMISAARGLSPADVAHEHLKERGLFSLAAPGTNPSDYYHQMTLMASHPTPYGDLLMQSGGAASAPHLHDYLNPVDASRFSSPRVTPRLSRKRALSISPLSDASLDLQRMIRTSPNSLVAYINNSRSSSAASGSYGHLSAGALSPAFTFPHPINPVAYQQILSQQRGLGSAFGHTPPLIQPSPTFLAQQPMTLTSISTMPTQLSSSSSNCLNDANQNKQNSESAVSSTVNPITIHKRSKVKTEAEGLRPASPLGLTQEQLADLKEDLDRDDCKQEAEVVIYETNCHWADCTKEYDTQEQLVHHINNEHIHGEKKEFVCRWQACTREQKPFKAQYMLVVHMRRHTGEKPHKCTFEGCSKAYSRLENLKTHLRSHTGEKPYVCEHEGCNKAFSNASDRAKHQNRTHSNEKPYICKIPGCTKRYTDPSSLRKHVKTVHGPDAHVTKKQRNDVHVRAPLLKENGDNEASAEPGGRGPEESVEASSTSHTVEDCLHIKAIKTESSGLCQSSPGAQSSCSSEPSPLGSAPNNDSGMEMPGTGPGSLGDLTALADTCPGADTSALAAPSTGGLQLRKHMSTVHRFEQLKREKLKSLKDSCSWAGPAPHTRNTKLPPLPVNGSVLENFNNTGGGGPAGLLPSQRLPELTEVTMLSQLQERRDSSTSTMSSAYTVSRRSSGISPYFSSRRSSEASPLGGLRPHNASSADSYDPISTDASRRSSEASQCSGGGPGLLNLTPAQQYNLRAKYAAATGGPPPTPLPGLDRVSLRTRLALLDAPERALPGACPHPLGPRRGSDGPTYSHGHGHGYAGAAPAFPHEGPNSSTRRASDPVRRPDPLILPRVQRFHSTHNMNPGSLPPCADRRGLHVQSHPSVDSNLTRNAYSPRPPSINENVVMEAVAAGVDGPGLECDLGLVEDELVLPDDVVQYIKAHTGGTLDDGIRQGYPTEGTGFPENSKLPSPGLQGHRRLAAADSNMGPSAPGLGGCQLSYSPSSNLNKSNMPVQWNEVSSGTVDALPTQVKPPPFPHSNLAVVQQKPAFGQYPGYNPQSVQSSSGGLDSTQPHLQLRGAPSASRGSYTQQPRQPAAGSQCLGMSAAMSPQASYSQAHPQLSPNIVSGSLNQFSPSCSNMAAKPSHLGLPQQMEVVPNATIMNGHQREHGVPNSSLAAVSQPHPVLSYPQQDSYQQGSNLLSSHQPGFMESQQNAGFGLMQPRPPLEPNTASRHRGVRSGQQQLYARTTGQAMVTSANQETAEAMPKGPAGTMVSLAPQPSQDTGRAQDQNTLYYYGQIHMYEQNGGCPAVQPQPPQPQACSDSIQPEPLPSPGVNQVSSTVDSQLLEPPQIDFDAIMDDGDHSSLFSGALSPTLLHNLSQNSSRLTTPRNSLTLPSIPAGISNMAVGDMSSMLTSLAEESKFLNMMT
UniProt Q61602: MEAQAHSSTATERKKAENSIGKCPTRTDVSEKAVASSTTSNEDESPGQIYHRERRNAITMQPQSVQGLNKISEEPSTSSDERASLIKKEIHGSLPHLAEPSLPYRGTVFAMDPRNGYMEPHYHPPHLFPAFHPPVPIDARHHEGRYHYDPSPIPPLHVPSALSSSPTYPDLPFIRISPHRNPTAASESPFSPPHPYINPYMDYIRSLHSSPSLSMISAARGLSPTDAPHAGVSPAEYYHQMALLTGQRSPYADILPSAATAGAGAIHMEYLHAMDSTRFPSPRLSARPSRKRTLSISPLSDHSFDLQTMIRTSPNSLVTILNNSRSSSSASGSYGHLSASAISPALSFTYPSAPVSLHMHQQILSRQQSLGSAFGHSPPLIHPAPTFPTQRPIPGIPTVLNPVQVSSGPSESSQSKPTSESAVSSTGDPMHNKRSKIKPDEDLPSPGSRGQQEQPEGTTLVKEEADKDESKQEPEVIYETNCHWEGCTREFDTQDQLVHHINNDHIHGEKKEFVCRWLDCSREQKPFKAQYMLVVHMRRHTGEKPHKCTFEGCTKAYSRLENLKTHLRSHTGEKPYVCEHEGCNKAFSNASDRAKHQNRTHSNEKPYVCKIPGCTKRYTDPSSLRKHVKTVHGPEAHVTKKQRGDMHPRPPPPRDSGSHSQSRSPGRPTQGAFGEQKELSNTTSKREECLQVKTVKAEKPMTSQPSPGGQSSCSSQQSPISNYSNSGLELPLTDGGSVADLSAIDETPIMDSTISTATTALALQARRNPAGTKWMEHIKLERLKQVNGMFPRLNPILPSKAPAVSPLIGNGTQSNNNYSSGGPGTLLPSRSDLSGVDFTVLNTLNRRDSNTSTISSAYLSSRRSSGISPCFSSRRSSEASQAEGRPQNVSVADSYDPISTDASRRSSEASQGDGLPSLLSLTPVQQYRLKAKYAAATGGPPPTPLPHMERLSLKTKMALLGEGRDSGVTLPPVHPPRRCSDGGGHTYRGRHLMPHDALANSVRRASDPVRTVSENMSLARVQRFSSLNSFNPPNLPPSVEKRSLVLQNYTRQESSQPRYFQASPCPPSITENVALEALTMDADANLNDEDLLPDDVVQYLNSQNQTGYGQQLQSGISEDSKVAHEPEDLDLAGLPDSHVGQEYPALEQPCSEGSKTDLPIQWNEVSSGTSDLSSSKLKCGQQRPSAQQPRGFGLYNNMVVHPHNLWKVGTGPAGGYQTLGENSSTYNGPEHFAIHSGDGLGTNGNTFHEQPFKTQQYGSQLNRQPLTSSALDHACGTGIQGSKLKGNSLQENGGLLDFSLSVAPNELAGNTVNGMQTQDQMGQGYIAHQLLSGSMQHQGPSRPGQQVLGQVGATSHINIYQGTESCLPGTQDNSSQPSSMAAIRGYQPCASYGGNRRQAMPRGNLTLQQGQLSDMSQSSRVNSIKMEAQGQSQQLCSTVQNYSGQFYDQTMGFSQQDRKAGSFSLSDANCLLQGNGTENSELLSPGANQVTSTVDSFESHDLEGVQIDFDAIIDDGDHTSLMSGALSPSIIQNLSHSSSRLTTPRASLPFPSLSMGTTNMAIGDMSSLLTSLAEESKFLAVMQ
UniProt P97496: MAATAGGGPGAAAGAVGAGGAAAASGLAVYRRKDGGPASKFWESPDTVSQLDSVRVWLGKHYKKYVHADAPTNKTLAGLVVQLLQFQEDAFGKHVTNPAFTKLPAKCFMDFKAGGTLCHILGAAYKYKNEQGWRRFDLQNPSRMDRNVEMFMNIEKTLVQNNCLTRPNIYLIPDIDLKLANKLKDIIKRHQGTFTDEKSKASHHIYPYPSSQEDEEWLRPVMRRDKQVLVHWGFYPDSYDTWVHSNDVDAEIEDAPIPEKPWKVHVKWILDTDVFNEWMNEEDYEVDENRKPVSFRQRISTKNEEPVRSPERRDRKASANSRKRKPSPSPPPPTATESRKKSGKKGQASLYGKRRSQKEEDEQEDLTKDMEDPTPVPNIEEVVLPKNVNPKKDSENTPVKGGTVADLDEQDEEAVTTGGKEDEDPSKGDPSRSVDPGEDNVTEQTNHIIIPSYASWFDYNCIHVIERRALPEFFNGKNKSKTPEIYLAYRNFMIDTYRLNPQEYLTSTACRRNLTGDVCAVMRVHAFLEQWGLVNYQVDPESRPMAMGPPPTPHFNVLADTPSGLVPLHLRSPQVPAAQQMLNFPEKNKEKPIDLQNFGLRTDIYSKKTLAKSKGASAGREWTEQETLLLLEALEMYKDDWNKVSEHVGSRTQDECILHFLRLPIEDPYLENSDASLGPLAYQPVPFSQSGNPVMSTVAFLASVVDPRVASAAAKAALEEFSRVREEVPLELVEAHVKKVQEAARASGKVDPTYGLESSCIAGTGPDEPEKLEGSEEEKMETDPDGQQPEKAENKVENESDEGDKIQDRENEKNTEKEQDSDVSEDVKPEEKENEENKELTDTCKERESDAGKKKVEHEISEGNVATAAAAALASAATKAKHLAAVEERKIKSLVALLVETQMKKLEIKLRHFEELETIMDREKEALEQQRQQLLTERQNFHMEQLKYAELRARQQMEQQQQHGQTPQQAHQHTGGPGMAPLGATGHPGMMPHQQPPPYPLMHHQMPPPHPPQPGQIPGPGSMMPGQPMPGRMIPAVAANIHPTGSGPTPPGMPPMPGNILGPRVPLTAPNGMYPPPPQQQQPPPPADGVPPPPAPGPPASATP
UniProt Q61188: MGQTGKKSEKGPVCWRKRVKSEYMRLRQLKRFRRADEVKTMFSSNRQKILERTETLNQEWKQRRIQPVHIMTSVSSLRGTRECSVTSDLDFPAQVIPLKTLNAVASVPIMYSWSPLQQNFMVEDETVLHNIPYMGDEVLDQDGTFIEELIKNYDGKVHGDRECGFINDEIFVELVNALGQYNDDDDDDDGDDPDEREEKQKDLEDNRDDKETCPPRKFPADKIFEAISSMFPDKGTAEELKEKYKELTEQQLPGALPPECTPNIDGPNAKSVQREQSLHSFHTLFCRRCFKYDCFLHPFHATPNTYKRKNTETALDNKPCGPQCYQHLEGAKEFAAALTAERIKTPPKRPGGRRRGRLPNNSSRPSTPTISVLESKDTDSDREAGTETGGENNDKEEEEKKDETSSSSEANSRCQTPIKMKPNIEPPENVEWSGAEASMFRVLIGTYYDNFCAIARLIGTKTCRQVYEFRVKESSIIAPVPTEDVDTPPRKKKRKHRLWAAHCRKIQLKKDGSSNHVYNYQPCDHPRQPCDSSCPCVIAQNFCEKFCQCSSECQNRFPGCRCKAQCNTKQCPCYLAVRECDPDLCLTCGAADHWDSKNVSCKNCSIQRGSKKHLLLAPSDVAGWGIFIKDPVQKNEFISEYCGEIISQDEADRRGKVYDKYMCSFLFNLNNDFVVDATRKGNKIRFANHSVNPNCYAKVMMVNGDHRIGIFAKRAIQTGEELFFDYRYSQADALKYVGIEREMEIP
UniProt Q80U70: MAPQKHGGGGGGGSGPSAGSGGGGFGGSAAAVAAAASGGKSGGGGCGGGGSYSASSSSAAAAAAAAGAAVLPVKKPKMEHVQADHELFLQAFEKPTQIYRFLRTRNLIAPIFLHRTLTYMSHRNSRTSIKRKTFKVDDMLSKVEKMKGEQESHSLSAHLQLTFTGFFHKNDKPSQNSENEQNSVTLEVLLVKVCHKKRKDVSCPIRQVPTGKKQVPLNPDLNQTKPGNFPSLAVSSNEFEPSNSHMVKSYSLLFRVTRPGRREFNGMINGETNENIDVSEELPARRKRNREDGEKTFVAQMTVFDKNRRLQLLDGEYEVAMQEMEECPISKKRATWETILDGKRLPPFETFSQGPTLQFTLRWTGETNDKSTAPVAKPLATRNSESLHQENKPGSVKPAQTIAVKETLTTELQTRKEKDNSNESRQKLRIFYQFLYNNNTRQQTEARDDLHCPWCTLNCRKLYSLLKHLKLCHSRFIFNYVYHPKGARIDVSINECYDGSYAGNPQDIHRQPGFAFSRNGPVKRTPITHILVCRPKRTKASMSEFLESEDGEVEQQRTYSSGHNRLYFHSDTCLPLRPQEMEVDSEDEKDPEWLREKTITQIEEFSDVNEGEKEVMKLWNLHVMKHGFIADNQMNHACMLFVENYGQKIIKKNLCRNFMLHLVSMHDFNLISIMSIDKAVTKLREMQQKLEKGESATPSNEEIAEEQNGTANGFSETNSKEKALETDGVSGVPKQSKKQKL

What was measured:
[1] = target: Gli2 (mouse (endogenous in E11.5 limb buds)) (UniProt Q0VGT2); experiment: co-IP; reciprocal immunoprecipitation of endogenous proteins from E11.5 control limb bud lysates, western blot
[2] = target: Gli3FL (mouse (endogenous in E11.5 limb buds)) (UniProt Q61602); experiment: as above
[3] = target: Gli2 (mouse (endogenous in E11.5 limb buds)) (UniProt Q0VGT2); experiment: co-IP; immunoprecipitation of endogenous proteins from lysates of developing limbs (stage not stated), western blot; preclear beads as negative control
[4] = target: Gli3 (mouse (endogenous in limb buds)) (UniProt Q61602); experiment: as above

Row | Substance | binding [1] | binding [2] | binding [3] | binding [4]
1 | Srg3/mBaf155 (from UniProt P97496 1-1104) | binds | binds |  | 
2 | Ezh2 (from UniProt Q61188 1-746) |  |  | binds | binds
3 | Suz12 (from UniProt Q80U70 1-741) |  |  | binds | binds
